The values below come from US20250382287A1, “PHARMACEUTICALLY ACCEPTABLE SALT AND CRYSTAL FORM OF NITROGEN-CONTAINING BRIDGE HETEROCYCLIC DERIVATIVE, AND METHOD FOR PREPARING SAME” (JIANGSU HENGRUI PHARMACEUTICALS CO., LTD., priority 2022, published 2025).

Further values from the same series stand in other lists.

The series is described as follows: Long-term/accelerated stability (sealed, 25° C./60% RH and 40° C./75% RH).
[1] abbreviates: 25° C., 60% RH, sealed, 1 month.
The mark [2] stands for this setting: 25° C., 60% RH, sealed, 2 months.
The mark [3] stands for this setting: 40° C., 75% RH, sealed, 1 month.
The mark [4] stands for this setting: 40° C., 75% RH, sealed, 2 months.
The mark [5] stands for this setting: 40° C., 75% RH, sealed, 3 months.
Where [6] appears, read: 40° C., 75% RH, sealed, 6 months.

Regarding `CCO[C@H]1C[C@H]2CC[C@@](c3ccc(C(=O)O)cc3)(C1)N2Cc1c(OC)cc(C)c2[nH]ccc12.Cl` [crystal form II of the hydrochloride, 4-((1S,3S,5R)-3-ethoxy-8-((5-methoxy-7-methyl-1H-indol-4-yl)methyl)-8-azabicyclo[3.2.1]octan-1-yl)benzoic acid-hydrochloride], the Salt form entry reads like this: under setting [1], “No change”; under setting [2], “No change”; under setting [3], “No change”; under setting [4], “No change”; under setting [5], “No change”; under setting [6], “No change”. Also, where the note is “Initial”, the Salt form entry is listed as “Crystal form II”.
Regarding `CCO[C@H]1C[C@H]2CC[C@@](c3ccc(C(=O)O)cc3)(C1)N2Cc1c(OC)cc(C)c2[nH]ccc12.O=P(O)(O)O` [crystal form II of the phosphate, 4-((1S,3S,5R)-3-ethoxy-8-((5-methoxy-7-methyl-1H-indol-4-yl)methyl)-8-azabicyclo[3.2.1]octan-1-yl)benzoic acid-phosphate], the Salt form result runs as follows: under setting [1], “No change”; under setting [2], “No change”; under setting [3], “No change”; under setting [4], “No change”; (Initial) “Crystal form II”.
As to `CCO[C@H]1C[C@H]2CC[C@@](c3ccc(C(=O)O)cc3)(C1)N2Cc1c(OC)cc(C)c2[nH]ccc12.Cl` [crystal form III of the hydrochloride, 4-((1S,3S,5R)-3-ethoxy-8-((5-methoxy-7-methyl-1H-indol-4-yl)methyl)-8-azabicyclo[3.2.1]octan-1-yl)benzoic acid-hydrochloride], the Salt form result is listed as “No change” under setting [1]; “No change” under setting [2]; “No change” (25° C., 60% RH, sealed, 3 months); “No change” (25° C., 60% RH, sealed, 6 months); “No change” under setting [3]; “No change” under setting [4]. The Salt form entry by setting is: under setting [5], “No change”; under setting [6], “No change”; (Initial) “Crystal form III”.
